{"source": "patent US20060014677A1", "about": "“Method for maximizing efficacy and predicting and minimizing toxicity of calcineurin inhibitor compounds” (Isotechnika International Inc., priority 2004, published 2006)", "test_system": "calcineurin", "assay": "Calcineurin inhibition assay on whole blood lysates, PK-PD sigmoid Emax model (Study A, phase II)", "assay_type": "in vivo, human", "settings": "FIG. 3A/3B; day 7 of the 12 week trial", "data": [{"smiles": "C/C=C/C[C@@H](C)[C@@H](O)[C@H]1C(=O)N[C@@H](CC)C(=O)N(C)CC(=O)N(C)[C@@H](CC(C)C)C(=O)N[C@@H](C(C)C)C(=O)N(C)[C@@H](CC(C)C)C(=O)N[C@@H](C)C(=O)N[C@H](C)C(=O)N(C)[C@@H](CC(C)C)C(=O)N(C)[C@@H](CC(C)C)C(=O)N(C)[C@@H](C(C)C)C(=O)N1C", "note": "[cyclosporin A, reference compound]", "values": [{"measurement": "correlation (R) between trough concentration (C0) and Emax", "value": "no measurable correlation"}]}]}
